The values below come from the supplement of paper PMC6445147.

Single values of this data set are uncertain.

B1: human tRNA-Pro; a variant is named by its letters at N, in order (parent)
chain: GGCTCGTTGGTCTAGNGGTATGATTCTCGCTTAGGGTGCGAGAGGTCCCGGGTTCNNATCCCGGACGAGCCC

In series [1] the parent is B1. Briefly: tRNA Pol-III promoter activity, log2 (circRNA frequency / plasmid DNA frequency) (log2 ratio); higher = stronger promoter activity. The note with it: HEK293T; construct: no Pol-II promoter ((-)CMV library).
The variants in series [2] derive from B1. Briefly: tRNA 3' processing efficiency (processed reads / all reads, maximum-likelihood estimate) (fraction); higher = more efficient 3' processing. The following applies: HEK293T; construct: no Pol-II promoter ((-)CMV library).
Variants of B1 are the subject of series [3]. Briefly: tRNA 5' processing efficiency (processed reads / all reads, maximum-likelihood estimate) (fraction); higher = more efficient 5' processing. The following applies: HEK293T; construct: CMV Pol-II promoter ((+)CMV library, decapped).

As for CAG T19C C55G, in series [1], the “tRNA Pol-III promoter activity (log2)” value came to 2.71. For the same variant, the “tRNA 3' processing efficiency” value in series [2] is 0.5.

For the variant GAG T19C T59C, the “tRNA Pol-III promoter activity (log2)” value in series [1] came out at 4.36. In addition, the “tRNA 3' processing efficiency” value in series [2] was 0.25.

With GAG T19A A58T, in series [1], the “tRNA Pol-III promoter activity (log2)” value worked out at 3.36. Further, the “tRNA 3' processing efficiency” value in series [2] was 0.25.

In the case of GAG T19A A20T A58T, the “tRNA Pol-III promoter activity (log2)” value in series [1] came out at 4.19. Besides, in series [2], the “tRNA 3' processing efficiency” value was 0.17.

As to GAG T8C T54G, the “tRNA Pol-III promoter activity (log2)” value in series [1] is 3.34. In addition, in series [2], the “tRNA 3' processing efficiency” value is 0.25.

As to GAG T8A C55A, the “tRNA Pol-III promoter activity (log2)” value in series [1] came to 3.36. For the same variant, the “tRNA 3' processing efficiency” value in series [2] was 0.5.

In the case of GAG G17C G18A, the “tRNA Pol-III promoter activity (log2)” value in series [1] is 3.03. Further, the “tRNA 3' processing efficiency” value in series [2] was 0.25.

As to GAT A14T A58G, the “tRNA Pol-III promoter activity (log2)” value in series [1] worked out at 3.72. Further, the “tRNA 3' processing efficiency” value in series [2] is 0.5.

As to GAG T19C A58T, the “tRNA Pol-III promoter activity (log2)” value in series [1] came to 4.36. Moreover, the “tRNA 3' processing efficiency” value in series [2] was 0.5.

With GAG T19C A58G, the “tRNA Pol-III promoter activity (log2)” value in series [1] was found to be 5.53. The “tRNA 3' processing efficiency” value in series [2] is 0.33.

Consider GAG G18T A20C, for which the “tRNA Pol-III promoter activity (log2)” value in series [1] amounted to 4.74. In series [2], the “tRNA 3' processing efficiency” value is 0.14.

Consider GAG T54C, for which the “tRNA Pol-III promoter activity (log2)” value in series [1] came out at 0.138. Further, the “tRNA 3' processing efficiency” value in series [2] is 0.5. Further, the “tRNA 5' processing efficiency” value in series [3] is 0.2.

As to TAT A14G A58G, the “tRNA Pol-III promoter activity (log2)” value in series [1] worked out at 4.94. Besides, the “tRNA 3' processing efficiency” value in series [2] was 0.2.

As for GAT A20T, in series [1], the “tRNA Pol-III promoter activity (log2)” value amounted to 0.738. The “tRNA 3' processing efficiency” value in series [2] is 0.27.

GAT A20G: the “tRNA Pol-III promoter activity (log2)” value in series [1] was found to be 1.58. For the same variant, the “tRNA 3' processing efficiency” value in series [2] is 0.45. Also, the “tRNA 5' processing efficiency” value in series [3] was 0.29.

Consider GAT A20C, for which the “tRNA Pol-III promoter activity (log2)” value in series [1] came out at 0.66. The “tRNA 3' processing efficiency” value in series [2] is 0.44.

Turning to GAT A14C G15C, the “tRNA Pol-III promoter activity (log2)” value in series [1] worked out at 4.27. In addition, the “tRNA 3' processing efficiency” value in series [2] is 0.14.

In the case of CAG T59C, the “tRNA Pol-III promoter activity (log2)” value in series [1] was 3.74. Moreover, the “tRNA 3' processing efficiency” value in series [2] was 0.43.

As to TAT A14G, the “tRNA Pol-III promoter activity (log2)” value in series [1] is 3.73. Moreover, the “tRNA 3' processing efficiency” value in series [2] is 0.24.

Consider TAT A14T, for which the “tRNA Pol-III promoter activity (log2)” value in series [1] was determined as 4.08. In series [2], the “tRNA 3' processing efficiency” value was 0.21.

Turning to TAT A14C, the “tRNA Pol-III promoter activity (log2)” value in series [1] was 2.84. In series [2], the “tRNA 3' processing efficiency” value was 0.57.

Consider GAG T8G T19A A20T, for which, in series [1], the “tRNA Pol-III promoter activity (log2)” value stood at 7.03. Also, the “tRNA 3' processing efficiency” value in series [2] is 0.62.

Take GAG T53A T59C: the “tRNA Pol-III promoter activity (log2)” value in series [1] was 4.14. For the same variant, the “tRNA 3' processing efficiency” value in series [2] was 0.3.

GAG T53A T59A: the “tRNA Pol-III promoter activity (log2)” value in series [1] stood at 5.91. The “tRNA 3' processing efficiency” value in series [2] was 0.55.

In the case of CAT A58T, in series [1], the “tRNA Pol-III promoter activity (log2)” value came out at 2.23. The “tRNA 3' processing efficiency” value in series [2] was 0.25.

Regarding CAT A58G, in series [1], the “tRNA Pol-III promoter activity (log2)” value was 1.87. Besides, the “tRNA 3' processing efficiency” value in series [2] was 0.25.

Take GAT A20T T59C: the “tRNA Pol-III promoter activity (log2)” value in series [1] was 2.9. Besides, the “tRNA 3' processing efficiency” value in series [2] was 0.25.

With TAT A14G A20T, the “tRNA Pol-III promoter activity (log2)” value in series [1] stood at 3.94. Also, the “tRNA 3' processing efficiency” value in series [2] was 0.57.

GAG T8C A58G: the “tRNA Pol-III promoter activity (log2)” value in series [1] was 1.76. In addition, the “tRNA 3' processing efficiency” value in series [2] is 0.25.

For GAG T8C A58C, the “tRNA Pol-III promoter activity (log2)” value in series [1] was determined as 4.16. In series [2], the “tRNA 3' processing efficiency” value is 0.29.

As to GAG T8C A58T, the “tRNA Pol-III promoter activity (log2)” value in series [1] was found to be 2.04. In series [2], the “tRNA 3' processing efficiency” value was 0.25.

TAT A58T: the “tRNA Pol-III promoter activity (log2)” value in series [1] came to 4.52. The “tRNA 3' processing efficiency” value in series [2] was 0.71.

For TAT A58G, the “tRNA Pol-III promoter activity (log2)” value in series [1] was 3.39. The “tRNA 3' processing efficiency” value in series [2] was 0.22.

As for TAT A58C, the “tRNA Pol-III promoter activity (log2)” value in series [1] was 2.33. Also, in series [2], the “tRNA 3' processing efficiency” value is 0.25.

Turning to TAG T8C, in series [1], the “tRNA Pol-III promoter activity (log2)” value came out at 3.14. Moreover, the “tRNA 3' processing efficiency” value in series [2] was 0.32.

Consider TAG T8G, for which the “tRNA Pol-III promoter activity (log2)” value in series [1] worked out at 3.13. The “tRNA 3' processing efficiency” value in series [2] was 0.25.

In the case of GAT G9A G17A, the “tRNA Pol-III promoter activity (log2)” value in series [1] was 1.48. In addition, in series [2], the “tRNA 3' processing efficiency” value was 0.25.

In the case of GAT A14G T59C, the “tRNA Pol-III promoter activity (log2)” value in series [1] stood at 3.52. For the same variant, the “tRNA 3' processing efficiency” value in series [2] is 0.29.

GAT A14C A58G: the “tRNA Pol-III promoter activity (log2)” value in series [1] came out at 4.07. Also, in series [2], the “tRNA 3' processing efficiency” value is 0.2.

On to TAG T8A A14T, for which the “tRNA Pol-III promoter activity (log2)” value in series [1] turned out to be 3.68. Moreover, in series [2], the “tRNA 3' processing efficiency” value is 0.4.

GAT A58G: the “tRNA Pol-III promoter activity (log2)” value in series [1] was 2.04. In series [2], the “tRNA 3' processing efficiency” value is 0.33.

Take GAT A58C: the “tRNA Pol-III promoter activity (log2)” value in series [1] was found to be 0.68. The “tRNA 3' processing efficiency” value in series [2] was 0.41.

Consider GAT A58T, for which, in series [1], the “tRNA Pol-III promoter activity (log2)” value stood at 0.804. Also, the “tRNA 3' processing efficiency” value in series [2] is 0.45. Further, the “tRNA 5' processing efficiency” value in series [3] was 0.21.

On to AAG T19A A20T, for which, in series [1], the “tRNA Pol-III promoter activity (log2)” value was 5.93. Further, the “tRNA 3' processing efficiency” value in series [2] was 0.38.

Regarding GAT A14T G17T, the “tRNA Pol-III promoter activity (log2)” value in series [1] worked out at 2.72. In addition, the “tRNA 3' processing efficiency” value in series [2] was 0.69.

As for TAG T59G, the “tRNA Pol-III promoter activity (log2)” value in series [1] came out at 2.93. Moreover, in series [2], the “tRNA 3' processing efficiency” value is 0.17.

Regarding TAG T59A, in series [1], the “tRNA Pol-III promoter activity (log2)” value is 5.36. The “tRNA 3' processing efficiency” value in series [2] was 0.3.

As to TAT G15C, the “tRNA Pol-III promoter activity (log2)” value in series [1] was determined as 5.22. Further, the “tRNA 3' processing efficiency” value in series [2] was 0.41.

For TAT G15A, the “tRNA Pol-III promoter activity (log2)” value in series [1] was 3.51. In addition, the “tRNA 3' processing efficiency” value in series [2] was 0.28. In addition, the “tRNA 5' processing efficiency” value in series [3] is 0.03.

Consider AAG T8G A14C G17T A58T, for which, in series [1], the “tRNA Pol-III promoter activity (log2)” value came out at 7.64. Besides, in series [2], the “tRNA 3' processing efficiency” value is 0.92.

For GAG T8G T19G, in series [1], the “tRNA Pol-III promoter activity (log2)” value is 4.36. In addition, in series [2], the “tRNA 3' processing efficiency” value is 0.5.

With GAT G9T G15T T54A, in series [1], the “tRNA Pol-III promoter activity (log2)” value was determined as 2.84. The “tRNA 3' processing efficiency” value in series [2] is 0.14.

As to CAT G9A, in series [1], the “tRNA Pol-III promoter activity (log2)” value was 4.34. Moreover, the “tRNA 3' processing efficiency” value in series [2] is 0.25.

Take CAT G9T: in series [1], the “tRNA Pol-III promoter activity (log2)” value came out at 2.3. Further, the “tRNA 3' processing efficiency” value in series [2] is 0.13.

For the variant GAT G9A T19G, in series [1], the “tRNA Pol-III promoter activity (log2)” value is 4.61. Further, the “tRNA 3' processing efficiency” value in series [2] was 0.62.

AAT G9A: the “tRNA Pol-III promoter activity (log2)” value in series [1] amounted to 6.64. Besides, the “tRNA 3' processing efficiency” value in series [2] was 0.46.

Turning to TAG G17T A58T, the “tRNA Pol-III promoter activity (log2)” value in series [1] stood at 4.16. Besides, the “tRNA 3' processing efficiency” value in series [2] was 0.29.
